{"sequences": {"note": "By UniProt entry, the sequences of proteins in these tests, tags left out. Residues count along the entry.", "UniProt P08581, 25-932": "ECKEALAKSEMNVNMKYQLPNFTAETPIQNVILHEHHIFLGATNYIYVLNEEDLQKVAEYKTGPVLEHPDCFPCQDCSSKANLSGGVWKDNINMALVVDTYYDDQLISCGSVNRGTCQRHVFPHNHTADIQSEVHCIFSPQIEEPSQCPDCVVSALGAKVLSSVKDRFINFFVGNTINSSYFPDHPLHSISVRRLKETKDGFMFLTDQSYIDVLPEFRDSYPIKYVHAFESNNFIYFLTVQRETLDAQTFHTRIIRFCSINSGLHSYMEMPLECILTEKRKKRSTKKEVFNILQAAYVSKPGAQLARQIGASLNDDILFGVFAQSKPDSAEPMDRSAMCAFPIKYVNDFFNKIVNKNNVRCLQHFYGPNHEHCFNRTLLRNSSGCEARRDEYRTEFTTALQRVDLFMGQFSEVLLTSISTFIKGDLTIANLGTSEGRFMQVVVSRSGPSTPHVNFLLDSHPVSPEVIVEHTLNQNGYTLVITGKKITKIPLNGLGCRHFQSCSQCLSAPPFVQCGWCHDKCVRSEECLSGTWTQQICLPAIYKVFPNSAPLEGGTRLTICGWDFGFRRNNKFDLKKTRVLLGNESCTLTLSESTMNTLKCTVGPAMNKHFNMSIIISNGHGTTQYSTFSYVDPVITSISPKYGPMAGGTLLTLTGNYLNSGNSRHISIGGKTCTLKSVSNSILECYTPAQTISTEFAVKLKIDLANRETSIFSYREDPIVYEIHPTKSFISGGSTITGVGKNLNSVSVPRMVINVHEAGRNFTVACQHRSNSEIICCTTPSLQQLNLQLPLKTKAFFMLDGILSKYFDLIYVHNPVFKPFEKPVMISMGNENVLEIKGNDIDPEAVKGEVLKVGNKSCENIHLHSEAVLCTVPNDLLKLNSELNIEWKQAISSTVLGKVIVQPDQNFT", "UniProt P08581, 25-1390": "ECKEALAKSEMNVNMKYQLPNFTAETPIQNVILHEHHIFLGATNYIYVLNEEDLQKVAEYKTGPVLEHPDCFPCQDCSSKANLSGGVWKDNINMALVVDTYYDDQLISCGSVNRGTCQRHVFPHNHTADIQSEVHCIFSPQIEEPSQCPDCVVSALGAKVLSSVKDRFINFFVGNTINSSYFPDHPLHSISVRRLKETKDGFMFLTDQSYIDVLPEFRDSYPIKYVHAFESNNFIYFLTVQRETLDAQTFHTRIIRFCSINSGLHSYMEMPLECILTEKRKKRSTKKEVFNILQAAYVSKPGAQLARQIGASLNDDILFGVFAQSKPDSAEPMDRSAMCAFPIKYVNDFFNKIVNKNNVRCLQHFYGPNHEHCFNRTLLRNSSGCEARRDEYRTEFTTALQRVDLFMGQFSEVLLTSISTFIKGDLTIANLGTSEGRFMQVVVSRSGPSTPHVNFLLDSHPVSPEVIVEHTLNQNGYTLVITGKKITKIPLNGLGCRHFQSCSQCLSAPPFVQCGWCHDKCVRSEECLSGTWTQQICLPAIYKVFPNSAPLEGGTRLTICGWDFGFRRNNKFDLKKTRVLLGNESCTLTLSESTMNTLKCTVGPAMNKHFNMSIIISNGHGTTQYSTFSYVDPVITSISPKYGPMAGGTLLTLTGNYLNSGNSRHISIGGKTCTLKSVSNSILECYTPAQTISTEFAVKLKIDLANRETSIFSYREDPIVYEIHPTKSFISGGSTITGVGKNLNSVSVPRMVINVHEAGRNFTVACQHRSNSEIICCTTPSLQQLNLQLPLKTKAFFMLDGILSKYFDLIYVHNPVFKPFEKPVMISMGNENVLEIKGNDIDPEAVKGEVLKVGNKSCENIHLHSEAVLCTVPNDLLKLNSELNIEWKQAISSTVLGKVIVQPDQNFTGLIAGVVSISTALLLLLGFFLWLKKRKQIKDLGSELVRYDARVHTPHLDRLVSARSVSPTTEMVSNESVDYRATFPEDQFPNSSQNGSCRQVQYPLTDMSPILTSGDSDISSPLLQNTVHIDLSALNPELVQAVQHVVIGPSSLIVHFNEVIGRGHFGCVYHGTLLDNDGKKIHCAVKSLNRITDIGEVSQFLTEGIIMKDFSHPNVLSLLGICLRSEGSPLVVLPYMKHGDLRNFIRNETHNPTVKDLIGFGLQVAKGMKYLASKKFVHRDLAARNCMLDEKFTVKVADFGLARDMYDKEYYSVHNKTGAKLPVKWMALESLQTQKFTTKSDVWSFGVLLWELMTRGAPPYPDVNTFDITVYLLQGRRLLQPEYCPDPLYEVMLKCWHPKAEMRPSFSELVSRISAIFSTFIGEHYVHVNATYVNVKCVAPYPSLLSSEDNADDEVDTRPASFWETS", "UniProt P08637, 17-208": "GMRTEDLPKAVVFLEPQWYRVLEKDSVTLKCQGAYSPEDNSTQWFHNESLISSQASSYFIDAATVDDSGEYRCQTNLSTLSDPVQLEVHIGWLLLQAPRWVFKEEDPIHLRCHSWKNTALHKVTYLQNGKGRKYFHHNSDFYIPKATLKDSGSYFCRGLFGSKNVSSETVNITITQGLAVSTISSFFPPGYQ", "UniProt P08637, 17-254": "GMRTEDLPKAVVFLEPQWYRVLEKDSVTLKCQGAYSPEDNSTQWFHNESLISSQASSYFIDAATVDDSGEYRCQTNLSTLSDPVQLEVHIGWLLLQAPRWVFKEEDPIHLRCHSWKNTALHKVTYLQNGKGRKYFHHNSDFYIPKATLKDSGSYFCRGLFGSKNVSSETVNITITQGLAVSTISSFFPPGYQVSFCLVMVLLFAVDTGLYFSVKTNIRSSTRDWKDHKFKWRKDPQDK"}, "source": "patent US20140039042", "key": {"c-Met Fc fusion [1]": {"molecular_target": "c-Met Fc fusion (UniProt P08581)", "experiment": "filter binding", "conditions": "dot blot, purified recombinant protein, protein details: Fc-His fusion, single-stranded DNA"}, "[2]": {"molecular_target": "CD16α (FcγRIIIa) V158 allotype, CD16α-6His (UniProt P08637)", "experiment": "filter binding", "conditions": "CLN0020 at 5' retained original affinity, dot blot, allotype not specified, purified recombinant protein, protein details: 6His, single-stranded DNA"}, "c-Met Fc fusion [3]": {"molecular_target": "c-Met Fc fusion (UniProt P08581)", "experiment": "SELEX", "conditions": "purified recombinant protein, protein details: Fc-His fusion, single-stranded DNA"}, "[4]": {"molecular_target": "CD16α (FcγRIIIa) F158 allotype, CD16α-6His (UniProt P08637)", "experiment": "filter binding", "conditions": "dot blot, V158 allotype binding only; purified recombinant protein; protein details: 6His; single-stranded DNA"}, "[5]": {"molecular_target": "CD16α F158 on recombinant Jurkat cells (UniProt P08637)", "experiment": "flow cytometry", "conditions": "no binding to CD16α-negative Jurkat E6.1; protein on the cell surface; single-stranded DNA"}, "[6]": {"molecular_target": "CD16α (FcγRIIIa) V158 allotype, CD16α-6His (UniProt P08637)", "experiment": "EMSA", "conditions": "purified recombinant protein, protein details: 6His, single-stranded DNA"}, "[7]": {"system": "Fc portion (fusion partner control)", "experiment": "filter binding", "conditions": "no Fc or His-tag binding, dot blot; purified recombinant protein; single-stranded DNA"}, "[8]": {"molecular_target": "c-Met on GTL-16, MNK-45, EBC-1 cells (Homo sapiens) (UniProt P08581)", "experiment": "flow cytometry", "conditions": "no binding on Jurkat cells; protein on the cell surface; single-stranded DNA"}, "[9]": {"molecular_target": "CD16α (FcγRIIIa) V158 allotype, CD16α-6His (UniProt P08637)", "experiment": "SELEX", "conditions": "rRfY: 2'-OH purines, 2'-F pyrimidines; purified recombinant protein; protein details: 6His"}, "[10]": {"conditions": "decreased c-Met affinity, no linker"}, "[11]": {"conditions": "listed as binding specifically to c-Met, did not meet low nM criterion"}}, "note": "For part of these data: Negatives hold for the conditions tested. For part of these data: The comparison behind a weaker result is the experiment's own reference, which may not be listed here. For part of these data: At least one result comes from cells or an extract, where the contact may be indirect. For part of these data: For at least one entry, the source does not settle the construct or the ends of the probe."}
{"sequence": "CCACTGCGGGGGTCTATACGTGAGGAAGAAGTGGGCAGGTCGAGTGCGTAATGGTACGATTTGGGAAGTGGCTTGGGGTGGG [bsA1]", "values": [{"measurement": "binding result", "setting": "c-Met Fc fusion [1]; [10]", "value": "binds more weakly"}]}
{"sequence": "CCACTGCGGGGGTCTATACGTGAGGAAGAAGTGGGCAGGTCGAGTGCGTAATGGTACGATTTGGGAAGTGGCTTGGGGTGGG [bsA5]", "values": [{"measurement": "binding result", "setting": "[2]; iSp9 PEG(3) spacer between the two parts", "value": "binds"}, {"measurement": "binding result", "setting": "c-Met Fc fusion [1]; iSp9 PEG(3) spacer between the two parts, c-Met aptamer at 3' end performed best", "value": "binds"}]}
{"sequence": "CCACTGCGGGGGTCTATACGTGAGGAAGAAGTGGGCAGGTCGAGTGCGTAATGGTACGATTTGGGAAGTGGCTTGGGGTGGG [bsA7]", "values": [{"measurement": "binding result", "setting": "[2]; iSp18 PEG(6) spacer between the two parts", "value": "binds"}, {"measurement": "binding result", "setting": "c-Met Fc fusion [1]; iSp18 PEG(6) spacer between the two parts, c-Met aptamer at 3' end performed best", "value": "binds"}]}
{"sequence": "GAGTGCGTAATGGTACGATTTGGGAAGTGGCTTGGGGTGGGCCACTGCGGGGGTCTATACGTGAGGAAGAAGTGGGCAGGTC [bsA2]", "values": [{"measurement": "binding result", "setting": "c-Met Fc fusion [1]; [10]", "value": "binds more weakly"}]}
{"sequence": "GGAGGGAAAAGTTATCAGGCAAAGGAGAAGGCTCAAAACGGCCTGGGTGGTGGGTATGTGGATTAGTTTTGGAGTACTCGCTCC [CLN0005]", "values": [{"measurement": "selection result", "setting": "c-Met Fc fusion [3]; [11]", "value": "selected"}]}
{"sequence": "GGAGGGAAAAGTTATCAGGCAAAGGAGAAGGTCCAAAACGGCCTGGGTGGTGGGTATGTGGATTAGTTTTGGAGTACTCGCTCC [CLN0002]", "values": [{"measurement": "selection result", "setting": "c-Met Fc fusion [3]; [11]", "value": "selected"}]}
{"sequence": "GGAGGGAAAAGTTATCAGGCAAGGCGTGTGTATCCCTGTGGTAGGGGTTGGTCGGGGTGGGATTAGTTTTGGAGTACTCGCTCC [CLN0012]", "values": [{"measurement": "selection result", "setting": "c-Met Fc fusion [3]; [11]", "value": "selected"}]}
{"sequence": "GGAGGGAAAAGTTATCAGGCAGAGGGGAGGGTCGGGTATCGGCGTGTTCGGGGGATCTGCGATTAGTTTTGGAGTACTCGCTCC [CLN0123]", "values": [{"measurement": "binding result", "setting": "[4]", "value": "no binding"}, {"measurement": "binding result", "setting": "[5]", "value": "binds"}]}
{"sequence": "GGAGGGAAAAGTTATCAGGCAGCAAACAGCAGGTAGAGGGAAGTGGCAGATCGGGGTGGGGATTAGTTTTGGAGTACTCGCTCC [CLN0007]", "values": [{"measurement": "selection result", "setting": "c-Met Fc fusion [3]; [11]", "value": "selected"}]}
{"sequence": "GGAGGGAAAAGTTATCAGGCATCACGTGGTGGGCAAATAACCGGTTGGGGTGGGTCGAGGGATTAGTTTTGGAGTACTCGCTCC [CLN0018]", "values": [{"measurement": "binding result", "setting": "[4]", "value": "no binding"}]}
{"sequence": "GGAGGGAAAAGTTATCAGGCCACTGCGGGGGTCTATACGTGAGGAAGAAGTGGGCAGGTCGATTAGTTTTGGAGTACTCGCTCC [CLN0020]", "values": [{"measurement": "binding result", "setting": "[5]", "value": "binds"}]}
{"sequence": "GGAGGGAAAAGTTATCAGGCCAGGGTCGGGATTGGGCGGGGTCTGGAAGATCATGTGCCAGATTAGTTTTGGAGTACTCGCTCC [CLN0013]", "values": [{"measurement": "selection result", "setting": "c-Met Fc fusion [3]; [11]", "value": "selected"}]}
{"sequence": "GGAGGGAAAAGTTATCAGGCCGACAGTGGGTAGCGGTTAAGGGGAAGTGGCTTGGGGTGGGATTAGTTTTGGAGTACTCGCTCC [CLN0010]", "values": [{"measurement": "selection result", "setting": "c-Met Fc fusion [3]; [11]", "value": "selected"}]}
{"sequence": "GGAGGGAAAAGTTATCAGGCCGGGGGGGGAAGACGAGTGTAAGTTGGTAGGGTGGGGTAGGATTAGTTTTGGAGTACTCGCTCC [CLN0014]", "values": [{"measurement": "selection result", "setting": "c-Met Fc fusion [3]; [11]", "value": "selected"}]}
{"sequence": "GGAGGGAAAAGTTATCAGGCCGGGGTGGGATAAAAGCATGGTTGGTAGGGGTTGGGGCATGATTAGTTTTGGAGTACTCGCTCC [CLN0011]", "values": [{"measurement": "selection result", "setting": "c-Met Fc fusion [3]; [11]", "value": "selected"}]}
{"sequence": "GGAGGGAAAAGTTATCAGGCCGGGGTGGGGAGTAACAGGCTGTTGGTAGGGGTGGACCTGGATTAGTTTTGGAGTACTCGCTCC [CLN0001]", "values": [{"measurement": "selection result", "setting": "c-Met Fc fusion [3]; [11]", "value": "selected"}]}
{"sequence": "GGAGGGAAAAGTTATCAGGCGAGCGGGGACGAACACATATGGGGAAGTGGCTTGGGGTGGGATTAGTTTTGGAGTACTCGCTCC [CLN0008]", "values": [{"measurement": "selection result", "setting": "c-Met Fc fusion [3]; excluded from characterisation due to similarity with CLN0004", "value": "selected"}]}
{"sequence": "GGAGGGAAAAGTTATCAGGCGAGTGCGTAATGGTACGATTTGGGAAGTGGCTTGGGGTGGGATTAGTTTTGGAGTACTCGCTCC [CLN0004]", "values": [{"measurement": "binding result", "setting": "[6]; single c-Met aptamer control, same pattern as CLN0003, wording ambiguous", "value": "no binding"}, {"measurement": "binding result", "setting": "[7]", "value": "no binding"}, {"measurement": "binding result", "setting": "[8]", "value": "binds"}]}
{"sequence": "GGAGGGAAAAGTTATCAGGCGAGTGCGTAATGGTACGATTTGGGAAGTGGTTTGGGGTGGGATTAGTTTTGGAGTACTCGCTCC [CLN0009]", "values": [{"measurement": "selection result", "setting": "c-Met Fc fusion [3]; [11]", "value": "selected"}]}
{"sequence": "GGAGGGAAAAGTTATCAGGCGGATACAGCAGAATAAGGGAAGGGGCAGATCGGGGTGGGGATTAGTTTTGGAGTACTCGCTCC [CLN0006]", "values": [{"measurement": "selection result", "setting": "c-Met Fc fusion [3]; [11]", "value": "selected"}]}
{"sequence": "GGAGGGAAAAGTTATCAGGCTGGATGGTAGCTCGGTCGGGGTGGGTGGGTTGGCAAGTCTGATTAGTTTTGGAGTACTCGCTCC [CLN0003]", "values": [{"measurement": "binding result", "setting": "[6]; negative control, no supershift with CD16α-6His", "value": "no binding"}, {"measurement": "binding result", "setting": "[7]", "value": "no binding"}, {"measurement": "binding result", "setting": "[8]", "value": "binds"}]}
{"sequence": "GGAGGGAAAAGUUAUCAGGCGUUCUUGUAGUGCAUCCAAUUGCAGAGCGAAGGAGGUGUUGAUUAGUUUUGGAGUACUCGCUCC [CLN0062]", "values": [{"measurement": "selection result", "setting": "[9]", "value": "selected"}]}
{"sequence": "GGAGGGAAAAGUUAUCAGGCUAAACCCCAAAACAGUGCAACUAGGUGUAGGUCCCGUGGUGAUUAGUUUUGGAGUACUCGCUCC [CLN0050]", "values": [{"measurement": "selection result", "setting": "[9]", "value": "selected"}]}
{"sequence": "GGAGGGAAAAGUUAUCAGGCUAUGGAAGGGAUAGGGUAUCCGAGCGCAGAGGCUGAGGAUUAGUUUUGGAGUACUCGCUCC [CLN0056]", "values": [{"measurement": "selection result", "setting": "[9]", "value": "selected"}]}
{"sequence": "GGAGGGAAAAGUUAUCAGGCUCACGAAGUCAGCAAUAAUUUGCUGUAGGCGGUGGGGACUGAUUAGUUUUGGAGUACUCGCUCC [CLN0058]", "values": [{"measurement": "selection result", "setting": "[9]", "value": "selected"}]}
{"sequence": "GGAGGGAAAAGUUAUCAGGCUGCGGAAGGUAGGUUAUACGAGCGCGCAGGACUGGUAAUAGAUUAGUUUUGGAGUACUCGCUCC [CLN0047]", "values": [{"measurement": "selection result", "setting": "[9]", "value": "selected"}]}
